Measured values: PMC7018016, “Superstructure formation by RodZ hexamers of Shigella sonnei maintains the rod shape of bacilli” (PLoS ONE, 2020)
These are yes or no findings as the source states them, for the method shown. Some entries that bind do so weakly or less than the wild type.

The chains behind the UniProt entries cited, without tags or fusion partners.
UniProt Q3YZ36: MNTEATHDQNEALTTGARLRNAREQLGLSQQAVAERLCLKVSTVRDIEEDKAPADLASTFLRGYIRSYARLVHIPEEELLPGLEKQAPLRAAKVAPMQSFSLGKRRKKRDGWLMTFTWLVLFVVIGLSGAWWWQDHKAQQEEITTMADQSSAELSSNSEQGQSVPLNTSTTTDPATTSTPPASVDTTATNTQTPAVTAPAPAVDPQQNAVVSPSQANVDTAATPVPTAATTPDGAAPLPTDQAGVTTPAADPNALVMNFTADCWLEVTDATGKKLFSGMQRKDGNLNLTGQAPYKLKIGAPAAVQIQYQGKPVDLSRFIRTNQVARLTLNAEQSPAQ

Molecular target: native RodZ in the cell lysate of S. sonnei MS390 (S. sonnei (endogenous in MS390)) (UniProt Q3YZ36)
Assay: SEC; soluble lysate of S. sonnei MS390 (micrococcal nuclease treated) on Superdex 200 PC3.2/30 in RNA binding buffer with 0.1% Tween 20 and 0.1% Triton X-100; fractions immunoblotted for RodZ and MreB

“native RodZ in the cell lysate of S. sonnei MS390 (from UniProt Q3YZ36 1-337)” was tested, and the binding was “binds”.
